Experimental data from publication PMC12052760.
These are yes or no findings as the source states them, for the method shown. In cells and extracts the contact can be indirect. Some binding calls cover weakened binding; strength is not graded here.

The chains behind the UniProt entries cited, without tags or fusion partners.
UniProt Q7Z434: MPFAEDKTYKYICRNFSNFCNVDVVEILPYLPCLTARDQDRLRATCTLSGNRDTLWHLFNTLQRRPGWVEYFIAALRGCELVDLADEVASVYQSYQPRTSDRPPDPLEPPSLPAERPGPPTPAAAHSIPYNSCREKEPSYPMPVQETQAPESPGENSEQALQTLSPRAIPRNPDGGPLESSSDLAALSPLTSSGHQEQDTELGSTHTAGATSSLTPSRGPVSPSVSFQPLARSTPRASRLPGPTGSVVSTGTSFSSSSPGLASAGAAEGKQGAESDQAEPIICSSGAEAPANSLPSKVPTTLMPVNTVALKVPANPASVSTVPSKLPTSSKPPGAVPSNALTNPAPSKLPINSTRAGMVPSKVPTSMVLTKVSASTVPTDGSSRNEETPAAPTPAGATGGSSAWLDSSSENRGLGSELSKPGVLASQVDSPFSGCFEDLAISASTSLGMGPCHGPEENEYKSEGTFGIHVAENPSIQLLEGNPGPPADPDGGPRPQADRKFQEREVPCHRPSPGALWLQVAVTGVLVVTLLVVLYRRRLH
UniProt Q8IUC6: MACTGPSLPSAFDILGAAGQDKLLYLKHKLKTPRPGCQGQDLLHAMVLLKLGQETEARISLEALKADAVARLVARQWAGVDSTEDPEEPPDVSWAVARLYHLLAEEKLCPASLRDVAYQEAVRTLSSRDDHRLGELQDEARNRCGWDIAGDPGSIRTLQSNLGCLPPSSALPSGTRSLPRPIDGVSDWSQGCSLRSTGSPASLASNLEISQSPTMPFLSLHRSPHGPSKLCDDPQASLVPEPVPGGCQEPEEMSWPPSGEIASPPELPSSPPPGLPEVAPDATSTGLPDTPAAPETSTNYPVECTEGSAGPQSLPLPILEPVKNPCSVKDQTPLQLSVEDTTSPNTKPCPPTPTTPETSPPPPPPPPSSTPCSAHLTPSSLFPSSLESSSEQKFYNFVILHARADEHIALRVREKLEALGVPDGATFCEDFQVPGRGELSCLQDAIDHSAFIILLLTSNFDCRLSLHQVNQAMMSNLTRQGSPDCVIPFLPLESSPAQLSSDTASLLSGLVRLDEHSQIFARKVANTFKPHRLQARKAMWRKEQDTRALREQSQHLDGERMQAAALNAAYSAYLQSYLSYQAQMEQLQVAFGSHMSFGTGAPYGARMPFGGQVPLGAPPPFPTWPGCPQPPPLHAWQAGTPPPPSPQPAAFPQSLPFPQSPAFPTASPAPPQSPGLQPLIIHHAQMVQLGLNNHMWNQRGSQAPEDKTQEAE
UniProt Q86WV6: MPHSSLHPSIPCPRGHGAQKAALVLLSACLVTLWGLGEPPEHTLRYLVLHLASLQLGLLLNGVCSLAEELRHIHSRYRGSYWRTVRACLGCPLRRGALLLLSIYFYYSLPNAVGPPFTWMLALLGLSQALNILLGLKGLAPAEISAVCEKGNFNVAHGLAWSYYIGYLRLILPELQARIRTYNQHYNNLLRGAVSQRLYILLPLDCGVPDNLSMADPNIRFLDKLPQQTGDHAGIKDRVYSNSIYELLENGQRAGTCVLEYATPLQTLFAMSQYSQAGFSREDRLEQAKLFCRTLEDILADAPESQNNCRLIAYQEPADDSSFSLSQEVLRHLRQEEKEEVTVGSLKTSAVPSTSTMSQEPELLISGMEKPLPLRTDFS

Experiments:
Assay in all cases: co-IP
STAT2, P52630 = details: remark: other sources report otherwise
STAT1, P42224 = target: T1, STAT1, P42224; details: remark: other sources report otherwise
T1 chain: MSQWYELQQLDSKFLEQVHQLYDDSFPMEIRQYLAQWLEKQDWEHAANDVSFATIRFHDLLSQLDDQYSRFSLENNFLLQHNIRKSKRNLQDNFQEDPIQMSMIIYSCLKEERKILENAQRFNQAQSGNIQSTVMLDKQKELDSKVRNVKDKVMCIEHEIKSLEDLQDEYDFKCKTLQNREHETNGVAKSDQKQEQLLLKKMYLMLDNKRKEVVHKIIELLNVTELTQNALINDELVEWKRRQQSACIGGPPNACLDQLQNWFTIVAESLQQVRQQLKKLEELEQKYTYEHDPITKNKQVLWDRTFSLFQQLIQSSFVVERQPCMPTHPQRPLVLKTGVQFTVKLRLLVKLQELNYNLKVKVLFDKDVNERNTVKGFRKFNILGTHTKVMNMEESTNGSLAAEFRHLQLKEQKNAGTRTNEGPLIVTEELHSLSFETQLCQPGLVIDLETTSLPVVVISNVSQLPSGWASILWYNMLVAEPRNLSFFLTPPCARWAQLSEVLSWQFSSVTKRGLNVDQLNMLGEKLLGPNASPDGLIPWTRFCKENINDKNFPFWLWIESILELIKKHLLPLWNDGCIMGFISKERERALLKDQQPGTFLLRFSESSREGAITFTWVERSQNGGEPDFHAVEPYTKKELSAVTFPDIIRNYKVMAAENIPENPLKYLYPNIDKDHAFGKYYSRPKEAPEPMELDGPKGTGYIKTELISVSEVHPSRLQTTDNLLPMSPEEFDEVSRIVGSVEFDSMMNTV

RIG-I = target: T2, RIG-I (UniProt O95786)
T2 sequence: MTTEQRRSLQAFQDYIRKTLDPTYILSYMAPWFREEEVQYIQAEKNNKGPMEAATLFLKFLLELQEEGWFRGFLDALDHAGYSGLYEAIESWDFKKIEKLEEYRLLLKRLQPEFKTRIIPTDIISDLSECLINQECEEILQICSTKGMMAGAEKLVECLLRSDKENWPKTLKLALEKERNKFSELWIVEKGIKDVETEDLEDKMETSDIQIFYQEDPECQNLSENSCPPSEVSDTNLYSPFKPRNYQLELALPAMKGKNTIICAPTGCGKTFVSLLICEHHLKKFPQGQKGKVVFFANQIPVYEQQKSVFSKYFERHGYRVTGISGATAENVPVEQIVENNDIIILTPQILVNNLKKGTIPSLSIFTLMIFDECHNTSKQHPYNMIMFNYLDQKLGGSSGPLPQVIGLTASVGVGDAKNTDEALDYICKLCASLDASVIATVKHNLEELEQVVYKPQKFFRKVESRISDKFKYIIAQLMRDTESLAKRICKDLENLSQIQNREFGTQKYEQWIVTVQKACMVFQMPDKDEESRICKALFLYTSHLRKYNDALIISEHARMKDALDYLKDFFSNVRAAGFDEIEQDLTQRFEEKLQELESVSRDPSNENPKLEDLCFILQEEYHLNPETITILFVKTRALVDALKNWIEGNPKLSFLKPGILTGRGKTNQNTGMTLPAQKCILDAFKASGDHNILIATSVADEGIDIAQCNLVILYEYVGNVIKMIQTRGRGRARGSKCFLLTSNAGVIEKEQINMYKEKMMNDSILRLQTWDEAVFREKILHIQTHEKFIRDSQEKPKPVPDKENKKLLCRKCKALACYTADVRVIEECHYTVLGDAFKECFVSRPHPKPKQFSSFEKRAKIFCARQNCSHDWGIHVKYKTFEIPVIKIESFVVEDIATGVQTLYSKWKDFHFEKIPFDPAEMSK

STAT1 = STAT1 (UniProt P42224)
[1] = target: mitochondrial antiviral signaling protein (MAVS) (UniProt Q7Z434)
IKKϵ = target: T3, IKKϵ (UniProt Q14164)
T3 sequence: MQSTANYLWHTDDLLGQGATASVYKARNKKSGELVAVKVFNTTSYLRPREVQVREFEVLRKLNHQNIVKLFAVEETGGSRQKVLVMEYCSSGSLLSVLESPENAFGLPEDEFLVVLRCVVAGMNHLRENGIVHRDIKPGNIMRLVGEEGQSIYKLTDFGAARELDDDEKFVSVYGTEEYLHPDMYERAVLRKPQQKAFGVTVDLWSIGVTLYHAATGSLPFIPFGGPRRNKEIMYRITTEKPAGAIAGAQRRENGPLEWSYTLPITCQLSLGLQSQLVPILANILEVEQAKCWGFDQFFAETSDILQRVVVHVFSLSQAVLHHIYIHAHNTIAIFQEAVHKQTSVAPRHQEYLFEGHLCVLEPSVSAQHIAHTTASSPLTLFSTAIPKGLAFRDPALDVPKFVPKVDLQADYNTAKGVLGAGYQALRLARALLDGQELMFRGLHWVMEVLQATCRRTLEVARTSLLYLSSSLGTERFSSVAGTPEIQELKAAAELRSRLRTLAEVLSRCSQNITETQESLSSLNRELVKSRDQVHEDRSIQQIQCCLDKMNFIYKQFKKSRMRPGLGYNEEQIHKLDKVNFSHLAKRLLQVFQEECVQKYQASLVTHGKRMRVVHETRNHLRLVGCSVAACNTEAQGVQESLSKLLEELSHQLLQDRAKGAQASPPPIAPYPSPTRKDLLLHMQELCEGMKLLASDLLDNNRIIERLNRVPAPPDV

TRIF = TRIF (UniProt Q8IUC6)
[2] = target: T4, TANK-binding kinase 1 (TBK1) (UniProt Q9UHD2)
T4 sequence: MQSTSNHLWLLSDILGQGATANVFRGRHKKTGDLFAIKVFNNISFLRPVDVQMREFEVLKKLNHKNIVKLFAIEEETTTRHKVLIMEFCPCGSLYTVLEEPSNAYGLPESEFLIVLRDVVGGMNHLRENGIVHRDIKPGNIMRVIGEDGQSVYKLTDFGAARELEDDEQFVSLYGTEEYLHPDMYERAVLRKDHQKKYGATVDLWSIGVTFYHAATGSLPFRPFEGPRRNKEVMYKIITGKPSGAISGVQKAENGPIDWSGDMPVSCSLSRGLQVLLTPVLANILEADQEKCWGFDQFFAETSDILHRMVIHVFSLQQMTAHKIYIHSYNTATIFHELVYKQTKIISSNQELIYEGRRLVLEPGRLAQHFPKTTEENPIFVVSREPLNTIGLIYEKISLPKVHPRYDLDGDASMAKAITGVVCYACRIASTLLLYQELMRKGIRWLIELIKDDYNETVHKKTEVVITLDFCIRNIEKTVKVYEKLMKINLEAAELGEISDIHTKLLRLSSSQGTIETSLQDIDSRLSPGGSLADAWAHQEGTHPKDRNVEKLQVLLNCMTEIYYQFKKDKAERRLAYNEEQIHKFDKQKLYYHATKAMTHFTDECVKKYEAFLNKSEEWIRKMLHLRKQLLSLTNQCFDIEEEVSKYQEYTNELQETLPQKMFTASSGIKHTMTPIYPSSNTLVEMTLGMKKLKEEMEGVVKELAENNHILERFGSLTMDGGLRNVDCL

MDA5 = target: T5, MDA5 (UniProt Q9BYX4)
T5 sequence: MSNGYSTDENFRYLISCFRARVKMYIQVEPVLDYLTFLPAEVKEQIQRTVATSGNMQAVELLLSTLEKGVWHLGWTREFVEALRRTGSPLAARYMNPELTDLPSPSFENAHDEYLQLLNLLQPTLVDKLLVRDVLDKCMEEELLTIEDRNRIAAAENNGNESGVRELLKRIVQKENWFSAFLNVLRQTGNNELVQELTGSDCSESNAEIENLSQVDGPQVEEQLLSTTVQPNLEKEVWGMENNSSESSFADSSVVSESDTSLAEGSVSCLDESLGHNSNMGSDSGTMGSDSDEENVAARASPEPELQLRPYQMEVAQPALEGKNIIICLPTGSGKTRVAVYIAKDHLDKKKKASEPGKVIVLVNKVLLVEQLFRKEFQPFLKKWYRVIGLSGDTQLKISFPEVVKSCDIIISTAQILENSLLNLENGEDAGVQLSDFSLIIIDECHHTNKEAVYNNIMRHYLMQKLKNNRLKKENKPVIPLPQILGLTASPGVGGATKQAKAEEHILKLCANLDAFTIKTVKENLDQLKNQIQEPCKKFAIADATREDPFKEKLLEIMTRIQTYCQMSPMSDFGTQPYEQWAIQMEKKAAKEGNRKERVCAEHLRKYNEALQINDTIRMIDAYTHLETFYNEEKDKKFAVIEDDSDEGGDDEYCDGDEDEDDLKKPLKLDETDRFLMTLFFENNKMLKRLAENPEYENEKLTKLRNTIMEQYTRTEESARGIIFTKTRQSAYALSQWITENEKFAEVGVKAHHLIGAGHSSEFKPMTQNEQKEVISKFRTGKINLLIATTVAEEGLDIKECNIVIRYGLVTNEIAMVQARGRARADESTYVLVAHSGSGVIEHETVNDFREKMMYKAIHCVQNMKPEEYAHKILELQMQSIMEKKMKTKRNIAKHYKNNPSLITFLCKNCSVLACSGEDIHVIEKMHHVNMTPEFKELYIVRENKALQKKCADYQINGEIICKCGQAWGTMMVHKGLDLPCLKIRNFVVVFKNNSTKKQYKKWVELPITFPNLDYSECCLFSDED

[3] = target: stimulator of interferon genes (STING) (UniProt Q86WV6)

Measured: binding

B1: IRF9, Q00978 1-393 (protein)
chain: MASGRARCTRKLRNWVVEQVESGQFPGVCWDDTAKTMFRIPWKHAGKQDFREDQDAAFFKAWAIFKGKYKEGDTGGPAVWKTRLRCALNKSSEFKEVPERGRMDVAEPYKVYQLLPPGIVSGQPGTQKVPSKRQHSSVSSERKEEEDAMQNCTLSPSVLQDSLNNEEEGASGGAVHSDIGSSSSSSSPEPQEVTDTTEAPFQGDQRSLEFLLPPEPDYSLLLTFIYNGRVVGEAQVQSLDCRLVAEPSGSESSMEQVLFPKPGPLEPTQRLLSQLERGILVASNPRGLFVQRLCPIPISWNAPQAPPGPGPHLLPSNECVELFRTAYFCRDLVRYFQGLGPPPKFQVTLNFWEESHGSSHTPQNLITVKMEQAFARYLLEQTPEQQAAILSLV
binds: STAT2, P52630 | STAT1, P42224

B2: HPV16 E1 (protein, UniProt P03114 1-649)
chain: MADPAGTNGEEGTGCNGWFYVEAVVEKKTGDAISDDENENDSDTGEDLVDFIVNDNDYLTQAETETAHALFTAQEAKQHRDAVQVLKRKYLVSPLSDISGCVDNNISPRLKAICIEKQSRAAKRRLFESEDSGYGNTEVETQQMLQVEGRHETETPCSQYSGGSGGGCSQYSSGSGGEGVSERHTICQTPLTNILNVLKTSNAKAAMLAKFKELYGVSFSELVRPFKSNKSTCCDWCIAAFGLTPSIADSIKTLLQQYCLYLHIQSLACSWGMVVLLLVRYKCGKNRETIEKLLSKLLCVSPMCMMIEPPKLRSTAAALYWYKTGISNISEVYGDTPEWIQRQTVLQHSFNDCTFELSQMVQWAYDNDIVDDSEIAYKYAQLADTNSNASAFLKSNSQAKIVKDCATMCRHYKRAEKKQMSMSQWIKYRCDRVDDGGDWKQIVMFLRYQGVEFMSFLTALKRFLQGIPKKNCILLYGAANTGKSLFGMSLMKFLQGSVICFVNSKSHFWLQPLADAKIGMLDDATVPCWNYIDDNLRNALDGNLVSMDVKHRPLVQLKCPPLLITSNINAGTDSRWPYLHNRLVVFTFPNEFPFDENGNPVYELNDKNWKSFFSRTWSRLSLHEDEDKENDGDSLPTFKCVSGQNTNTL
binds: RIG-I | STAT1 | [1] | IKKϵ | TRIF | [2] | MDA5 | [3]

B3: HPV11 E1 (protein, UniProt P04014 1-649)
chain: MADDSGTENEGSGCTGWFMVEAIVEHTTGTQISEDEEEEVEDSGYDMVDFIDDRHITQNSVEAQALFNRQEADAHYATVQDLKRKYLGSPYVSPISNVANAVESEISPRLDAIKLTTQPKKVKRRLFETRELTDSGYGYSEVEAATQVEKHGDPENGGDGQERDTGRDIEGEGVEHREAEAVDDSTREHADTSGILELLKCKDIRSTLHGKFKDCFGLSFVDLIRPFKSDRTTCADWVVAGFGIHHSIADAFQKLIEPLSLYAHIQWLTNAWGMVLLVLIRFKVNKSRCTVARTLGTLLNIPENHMLIEPPKIQSGVRALYWFRTGISNASTVIGEAPEWITRQTVIEHSLADSQFKLTEMVQWAYDNDICEESEIAFEYAQRGDFDSNARAFLNSNMQAKYVKDCAIMCRHYKHAEMKKMSIKQWIKYRGTKVDSVGNWKPIVQFLRHQNIEFIPFLSKLKLWLHGTPKKNCIAIVGPPDTGKSCFCMSLIKFLGGTVISYVNSCSHFWLQPLTDAKVALLDDATQPCWTYMDTYMRNLLDGNPMSIDRKHRALTLIKCPPLLVTSNIDISKEEKYKYLHSRVTTFTFPNPFPFDRNGNAVYELSDANWKCFFERLSSSLDIEDSEDEEDGSNSQAFRCVPGSVVRTL
binds: RIG-I | STAT1 | [1] | IKKϵ | TRIF | [2] | MDA5 | [3]
